At least one compound was matched to its structure with a doubt left.
Test system: tracheal rings
Experiment: Ex vivo tracheal ring contractility / relaxation (organ bath)
Details: acetylcholine concentration-force curves

CC(=O)OCC[N+](C)(C)C [acetylcholine]
constriction response, transgenic vs nontransgenic rings: equivalent
